Measurements as given in US7989435B2, “Phytic citrate compounds and process for preparing the same” (IP-6 Research, Inc., priority 2005, dated 2011).
At least one read-out could not be matched to a standard name with certainty.

Experiment: Dissolution rate (Kd), FIG. 1
Settings: compared with phytic acid and EDTA, dissolving plaques in the artery

Compound	dissolution rate (Kd)
phytic hexa-citrate [Phytic citrate]	superior dissolution capability to phytic acid and EDTA
O=P(O)(O)O[C@H]1[C@H](OP(=O)(O)O)[C@@H](OP(=O)(O)O)[C@H](OP(=O)(O)O)[C@@H](OP(=O)(O)O)[C@H]1OP(=O)(O)O [Phytic acid]	superior dissolution capability to other chelators
